According to patent EP4674868A1:
Results are given in words; binding and its absence hold for the method and conditions named. Some binding calls cover weakened binding; strength is not graded here.

By UniProt entry, the sequences of proteins in these tests, tags left out. Residues count along the entry.
UniProt P25942, residues 21-277: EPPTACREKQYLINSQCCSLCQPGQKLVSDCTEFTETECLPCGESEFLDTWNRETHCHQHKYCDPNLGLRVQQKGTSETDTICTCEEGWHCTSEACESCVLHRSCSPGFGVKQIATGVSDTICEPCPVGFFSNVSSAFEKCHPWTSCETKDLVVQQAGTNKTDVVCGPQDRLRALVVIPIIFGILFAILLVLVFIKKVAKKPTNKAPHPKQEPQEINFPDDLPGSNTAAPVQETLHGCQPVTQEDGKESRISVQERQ

What was measured:
[1] = biological target: human CD40 on the surface of HEK293 cells (HEK293-HuCD40) (human) (UniProt P25942); assay: FACS, HEK293-HuCD40 cells
[2] = biological target: human FAP on the surface of CHO-K1 cells (CHO-K1-HuFAP) (human) (UniProt Q12884); assay: FACS, CHO-K1-HuFAP cells

binding [1]: binds | binding [2]: binds
Substance: B785502 (anti-FAP/4-1BB/CD40 trispecific antibody) (from UniProt P0DOX7 1-214)
